Test results published in PubChem BioAssay AID190 (DTP/NCI, 2004).
The list is a part of this screen's results and no random one: it gathers tests that were run many times, whatever their T/C, doses with no T/C, and many T/C values between a quarter and a half above the control. Further doses and runs are listed elsewhere. T/C: endpoint of the treated group in % of that of the vehicle group. Some doses have a count of surviving animals in place of a T/C: the source files T/C as zero there, which appears to mark a toxic dose or a test without result, not a measured value. Some survivor counts are full or nearly so, which does not show that the dose was tolerated: survival well below the control is almost never listed, so the zero probably covers shortened survival too. Counts of survivors are from the toxicity check (mostly the fifth day) where no day follows; animals may have died later. Schedule codes are those of the source, taken here to give the interval after Q, in days (D) or hours (H), and the number of doses after X. Some entries were tested several times; the results are listed from low to high. For survival time, the PubChem record calls one and a half times the control and up active, and a quarter to a half above the control has no call in these data; cut-offs in other NCI protocols can differ. Some T/C values carry the count of animals alive at the toxicity check (mostly the fifth day); without a count, all were alive then.

System: AKR/Lw mice, AKR lymphoma ip, median survival T/C
Assay: NCI In Vivo Anticancer Drug Screen. Data for tumor model Lymphoma AKR (Transplanted) (intraperitoneal) in AKR/Lw mice
Conditions: T/C endpoint: median survival time, higher T/C = longer survival
Procedure: The antitumor activity of compounds was measured in mice bearing transplantable tumors. Survival or tumor size were measured and the results are expressed as the measurement made in the treated group (T) divided by the measurement made in the vehicle treated control group (C). The tumor model used in this assay is Lymphoma AKR (Transplanted) (intraperitoneal) in AKR/Lw mice

[1] = dose: 16.0 mg/kg/injection, schedule: Q04DX003 (ip), vehicle: saline
[2] = dose: 100.0 mg/kg/injection, schedule: Q01DX001 (ip), vehicle: saline
[3] = dose: 400.0 mg/kg/injection, schedule: Q01DX001 (ip), vehicle: saline
[4] = dose: 400.0 mg/kg/injection, schedule: Q01DX001 (ip), vehicle: Klucel (hydroxypropylcellulose) (HPC)
[5] = dose: 100.0 mg/kg/injection, schedule: Q04DX003 (ip), vehicle: other
[6] = dose: 200.0 mg/kg/injection, schedule: Q04DX003 (ip), vehicle: other

NC(=O)c1[nH]nc(C2OC(CO)C(O)C2O)c1O (centres undefined)
survivor count (dose: 0.12 mg/kg/injection, schedule: Q04DX003 (ip), vehicle: saline): 10 of 10
survivor count (dose: 0.15 mg/kg/injection, schedule: Q01DX009 (ip), vehicle: saline): 10 of 10
survivor count (dose: 0.3 mg/kg/injection, schedule: Q01DX009 (ip), vehicle: saline): 10 of 10
T/C (dose: 0.5 mg/kg/injection, schedule: Q04DX003 (ip), vehicle: saline): 133 % of control
survivor count (dose: 0.6 mg/kg/injection, schedule: Q01DX009 (ip), vehicle: saline): 9 of 10
survivor count (dose: 1.25 mg/kg/injection, schedule: Q01DX009 (ip), vehicle: saline): 7 of 10
survivor count (dose: 2.0 mg/kg/injection, schedule: Q04DX003 (ip), vehicle: saline): 10 of 10
survivor count (dose: 2.5 mg/kg/injection, schedule: Q01DX009 (ip), vehicle: saline): 7 of 10
survivor count (dose: 4.0 mg/kg/injection, schedule: Q04DX003 (ip), vehicle: saline): 9 of 10
survivor count (dose: 5.0 mg/kg/injection, schedule: Q01DX009 (ip), vehicle: saline): 6 of 10
survivor count (dose: 8.0 mg/kg/injection, schedule: Q04DX003 (ip), vehicle: saline): 10 of 10
survivor count (dose: 10.0 mg/kg/injection, schedule: Q01DX009 (ip), vehicle: saline): 6 of 10
survivor count [1]: 8 of 10
survivor count (dose: 32.0 mg/kg/injection, schedule: Q04DX003 (ip), vehicle: saline): 8 of 10

Clc1nnc(Nc2ccccc2)c2ccccc12
survivor count (dose: 200.0 mg/kg/injection, schedule: Q04DX003 (ip), vehicle: saline): 10 of 10
survivor count (dose: 400.0 mg/kg/injection, schedule: Q04DX003 (ip), vehicle: saline): 10 of 10

CC1NC1(c1ccccc1)[n+]1ccccc1 (centres undefined)
survivor count [2]: 10 of 10
survivor count [3]: 2 of 10

COc1cccc2c1C(=O)c1c(O)c3c(c(O)c1C2=O)C[C@@](O)(C(C)=O)C[C@@H]3OC1CC(N)C(O)C(C)O1 (some centres undefined)
T/C (dose: 0.1 mg/kg/injection, schedule: Q01DX015 (ip), vehicle: saline): 128 % of control [8 of 10 alive]
T/C (dose: 0.4 mg/kg/injection, schedule: Q01DX010 (ip), vehicle: saline): 138 % of control

Cc1ccc(N2C(=O)CC(Sc3ccccc3N)C2=O)cc1 (centres undefined)
survivor count (dose: 200.0 mg/kg/injection, schedule: Q01DX001 (ip), vehicle: Klucel (hydroxypropylcellulose) (HPC)): 10 of 10
survivor count [4]: 10 of 10

CC[CH](C)[Hg][c]1cccc2ccccc12 (centres undefined)
survivor count [4]: 5 of 10

COc1ccccc1N1C(N)=NC(N)=NC1(C)C
survivor count [1]: 10 of 10
survivor count (dose: 200.0 mg/kg/injection, schedule: Q01DX001 (ip), vehicle: saline): 0 of 10
survivor count [3]: 0 of 10

Nc1cc[c]([Hg][Cl])cc1
survivor count (dose: 25.0 mg/kg/injection, schedule: Q01DX001 (ip), vehicle: saline): 0 of 10
survivor count (dose: 50.0 mg/kg/injection, schedule: Q01DX001 (ip), vehicle: saline): 0 of 10
survivor count [2]: 0 of 10

CCCCCCCCCCCCCCCC(=O)N(CCC#N)CCCCCCCCCN(CCC#N)C(=O)CCCCCCCCCCCCCCC
survivor count (dose: 50.0 mg/kg/injection, schedule: Q04DX003 (ip), vehicle: other): 10 of 10
survivor count [5]: 10 of 10
survivor count [6]: 10 of 10
survivor count [3]: 9 of 10

OCC1OC(n2cnc3c(Cl)ncnc32)C(O)C1O (centres undefined)
T/C (dose: 25.0 mg/kg/injection, schedule: Q01DX009 (ip), vehicle: saline, evaluated on day 45): 97 % of control
T/C (dose: 25.0 mg/kg/injection, schedule: Q01DX009 (ip), vehicle: saline, evaluated on day 60): 93, 111, 115, 119, 130 % of control
survivor count (dose: 25.0 mg/kg/injection, schedule: Q04DX003 (ip), vehicle: saline): 10 of 10
T/C (dose: 50.0 mg/kg/injection, schedule: Q01DX009 (ip), vehicle: saline, evaluated on day 45): 96 % of control
T/C (dose: 50.0 mg/kg/injection, schedule: Q01DX009 (ip), vehicle: saline, evaluated on day 60): 102, 102 [9 of 10 alive], 105, 105 [11 of 12 alive], 119 % of control
T/C (dose: 100.0 mg/kg/injection, schedule: Q01DX009 (ip), vehicle: saline, evaluated on day 45): 102 % of control
T/C (dose: 100.0 mg/kg/injection, schedule: Q01DX009 (ip), vehicle: saline, evaluated on day 60): 88 [8 of 10 alive], 101, 105, 107 [7 of 10 alive], 110 % of control
T/C [5]: 134 % of control
T/C (dose: 100.0 mg/kg/injection, schedule: Q04DX003 (ip), vehicle: saline, evaluated on day 45): 118 % of control
T/C (dose: 100.0 mg/kg/injection, schedule: Q04DX003 (ip), vehicle: saline, evaluated on day 60): 100 and 104 % of control
survivor count (dose: 100.0 mg/kg/injection, schedule: Q04DX003 (ip), vehicle: saline): 6 of 10 and 7 of 10
T/C (dose: 200.0 mg/kg/injection, schedule: Q01DX001 (ip), vehicle: saline, evaluated on day 45): 102 % of control
T/C (dose: 200.0 mg/kg/injection, schedule: Q01DX001 (ip), vehicle: saline, evaluated on day 60): 90, 95, 97, 110 % of control
T/C [6]: 132 % of control
T/C (dose: 200.0 mg/kg/injection, schedule: Q04DX003 (ip), vehicle: saline, evaluated on day 30): 102 % of control
T/C (dose: 200.0 mg/kg/injection, schedule: Q04DX003 (ip), vehicle: saline, evaluated on day 45): 110 % of control
T/C (dose: 200.0 mg/kg/injection, schedule: Q04DX003 (ip), vehicle: saline, evaluated on day 60): 100 and 102 % of control
survivor count (dose: 300.0 mg/kg/injection, schedule: Q01DX005 (ip), vehicle: saline): 5 of 10
survivor count (dose: 300.0 mg/kg/injection, schedule: Q04DX003 (ip), vehicle: saline): 7 of 10
T/C (dose: 400.0 mg/kg/injection, schedule: Q01DX001 (ip), vehicle: saline, evaluated on day 45): 94 % of control
T/C (dose: 400.0 mg/kg/injection, schedule: Q01DX001 (ip), vehicle: saline, evaluated on day 60): 90, 90 [9 of 10 alive], 115 % of control
survivor count [3]: 10 of 10
survivor count (dose: 400.0 mg/kg/injection, schedule: Q01DX005 (ip), vehicle: saline): 5 of 10
T/C (dose: 400.0 mg/kg/injection, schedule: Q04DX003 (ip), vehicle: saline, evaluated on day 45): 104 % of control
T/C (dose: 400.0 mg/kg/injection, schedule: Q04DX003 (ip), vehicle: saline, evaluated on day 60): 100, 109, 111 % of control
survivor count (dose: 500.0 mg/kg/injection, schedule: Q01DX001 (ip), vehicle: saline): 10 of 10
survivor count (dose: 500.0 mg/kg/injection, schedule: Q01DX005 (ip), vehicle: saline): 2 of 10
survivor count (dose: 600.0 mg/kg/injection, schedule: Q01DX001 (ip), vehicle: saline): 10 of 10

c1cc2cc3c(cc2cc1CC1NCCc2cc4c(cc21)OCO4)OCO3 (centres undefined)
survivor count (dose: 200.0 mg/kg/injection, schedule: Q04DX003 (ip), vehicle: Klucel (hydroxypropylcellulose) (HPC)): 9 of 10
survivor count (dose: 400.0 mg/kg/injection, schedule: Q04DX003 (ip), vehicle: Klucel (hydroxypropylcellulose) (HPC)): 1 of 10

CC[N+]1=NC2CCCC(C2)C1 (centres undefined)
survivor count [3]: 4 of 10
